Earlier results in patent publication US11414689B2, “Hydrolysis of steviol glycosides by beta-glucosidase” (Conagen Inc., priority 2017, dated 2022).

Details: as noted in taste tests; cited from earlier work

Row | SMILES | after-taste
1 | C=C1C[C@@]23CC[C@H]4[C@@](C)(CCC[C@@]4(C)C(=O)O[C@@H]4O[C@H](CO)[C@@H](O)[C@H](O)[C@H]4O)[C@@H]2CC[C@]1(O[C@@H]1O[C@H](CO)[C@@H](O)[C@H](O)[C@H]1O[C@@H]1O[C@H](CO)[C@@H](O)[C@H](O)[C@H]1O)C3 [Stevioside, stevioside] | bitter after-taste
2 | C=C1C[C@@]23CC[C@H]4[C@@](C)(CCC[C@@]4(C)C(=O)O[C@@H]4O[C@H](CO)[C@@H](O)[C@H](O)[C@H]4O)[C@@H]2CC[C@]1(O[C@@H]1O[C@H](CO)[C@@H](O)[C@H](O[C@@H]2O[C@H](CO)[C@@H](O)[C@H](O)[C@H]2O)[C@H]1O[C@@H]1O[C@H](CO)[C@@H](O)[C@H](O)[C@H]1O)C3 [Reb A, rebaudioside A] | much better than stevioside
3 | C=C1C[C@@]23CC[C@H]4[C@@](C)(CCC[C@@]4(C)C(=O)O[C@@H]4O[C@H](CO)[C@@H](O)[C@H](O)[C@H]4O[C@@H]4O[C@H](CO)[C@@H](O)[C@H](O)[C@H]4O)[C@@H]2CC[C@]1(O[C@@H]1O[C@H](CO)[C@@H](O)[C@H](O)[C@H]1O[C@@H]1O[C@H](CO)[C@@H](O)[C@H](O)[C@H]1O)C3 [Reb E, rebaudioside E] | much better than stevioside
